The values that follow come from publication PMC10020456.

Protein sequences, listed by entry. Tags and fused reporters are not part of them.
UniProt P52480: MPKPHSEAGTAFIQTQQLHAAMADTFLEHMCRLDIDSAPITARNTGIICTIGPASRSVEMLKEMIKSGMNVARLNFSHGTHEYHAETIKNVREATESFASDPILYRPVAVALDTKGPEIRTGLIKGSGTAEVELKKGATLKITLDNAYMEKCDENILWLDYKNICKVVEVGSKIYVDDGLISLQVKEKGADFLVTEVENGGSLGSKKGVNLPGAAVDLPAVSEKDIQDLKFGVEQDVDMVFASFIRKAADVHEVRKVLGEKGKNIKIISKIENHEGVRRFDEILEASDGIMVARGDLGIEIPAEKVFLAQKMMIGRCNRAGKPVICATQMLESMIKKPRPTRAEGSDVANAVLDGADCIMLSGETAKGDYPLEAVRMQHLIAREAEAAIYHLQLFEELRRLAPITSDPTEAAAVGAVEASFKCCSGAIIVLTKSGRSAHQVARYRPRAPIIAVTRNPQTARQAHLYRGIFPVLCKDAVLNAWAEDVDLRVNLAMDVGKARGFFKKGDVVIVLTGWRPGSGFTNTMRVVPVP

Assay [1] deals with T1, C-terminal deletion mutant form of IgSF11 (IgSF11-Mt353), C-terminally FLAG-tagged (UniProt P0C673).
T1 sequence: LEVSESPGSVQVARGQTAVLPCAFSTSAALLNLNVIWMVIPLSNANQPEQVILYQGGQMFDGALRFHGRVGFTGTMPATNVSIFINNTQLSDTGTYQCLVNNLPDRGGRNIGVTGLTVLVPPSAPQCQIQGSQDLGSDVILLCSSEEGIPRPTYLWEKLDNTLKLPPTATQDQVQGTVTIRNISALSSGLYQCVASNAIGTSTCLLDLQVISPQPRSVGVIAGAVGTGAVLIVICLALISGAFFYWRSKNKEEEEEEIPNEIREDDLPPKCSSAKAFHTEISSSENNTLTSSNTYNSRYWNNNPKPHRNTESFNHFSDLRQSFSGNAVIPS
Nature of the assay: co-IP; IgSF11-/- BMMs retrovirally transduced with C-terminally Flag-tagged IgSF11-FL or IgSF11-Mt353, lysed, immunoprecipitated with anti-Flag antibodies, western blotting for PKM2. (In western blotting, separated proteins are transferred to a membrane and probed.)

Assay [2] addresses T2, full-length IgSF11 (immunoglobulin superfamily 11), C-terminally FLAG-tagged (UniProt P0C673).
T2 sequence: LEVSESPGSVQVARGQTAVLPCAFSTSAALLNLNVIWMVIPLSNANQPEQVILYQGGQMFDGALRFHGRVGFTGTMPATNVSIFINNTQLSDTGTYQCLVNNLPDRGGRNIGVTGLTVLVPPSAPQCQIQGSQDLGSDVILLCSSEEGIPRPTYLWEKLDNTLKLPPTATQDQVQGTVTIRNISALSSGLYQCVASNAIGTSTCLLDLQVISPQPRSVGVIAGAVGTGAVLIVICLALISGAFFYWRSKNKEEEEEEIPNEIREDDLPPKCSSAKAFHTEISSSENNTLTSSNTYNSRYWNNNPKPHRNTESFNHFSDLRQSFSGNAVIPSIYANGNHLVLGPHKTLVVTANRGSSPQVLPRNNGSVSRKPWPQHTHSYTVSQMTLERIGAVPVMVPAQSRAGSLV
The description is as above.

Results are given in words; binding and its absence hold for the method and conditions named. Binding seen in cells or lysates may run through a third protein. Some entries that bind do so weakly or less than the wild type. Where a sequence is shown, tags or fusion partners need not be part of it.

“pyruvate kinase M isoform 2 (PKM2) (from UniProt P52480 1-531) (enzyme)”: the binding result in assay [1] was “binds weakly”; in assay [2] it was “binds”.
